Results reported in publication PMC6756050.
No constants are given. Whether binding was seen depends on the method and setting. Where a sequence is shown, tags or fusion partners need not be part of it.

Biological target: GST-tagged acidic region of MDM2
Experiment: pull-down; purified GST-tagged proteins or GST alone on glutathione-Sepharose beads overnight at 4 °C, His-tagged proteins added for 4 h at 4 °C, three washes, elution, western blot; both purified

binding: no binding
B1: His-tagged HBP1 (protein, UniProt O60381 1-514)
chain: MVWEVKTNQMPNAVQKLLLVMDKRASGMNDSLELLQCNENLPSSPGYNSCDEHMELDDLPELQAVQSDPTQSGMYQLSSDVSHQEYPRSSWNQNTSDIPETTYRENEVDWLTELANIATSPQSPLMQCSFYNRSSPVHIIATSKSLHSYARPPPVSSSSKSEPAFPHHHWKEETPVRHERANSESESGIFCMSSLSDDDDLGWCNSWPSTVWHCFLKGTRLCFHKGSNKEWQDVEDFARAEGCDNEEDLQMGIHKGYGSDGLKLLSHEESVSFGESVLKLTFDPGTVEDGLLTVECKLDHPFYVKNKGWSSFYPSLTVVQHGIPCCEVHIGDVCLPPGHPDAINFDDSGVFDTFKSYDFTPMDSSAVYVLSSMARQRRASLSCGGPGGQDFARSGFSKNCGSPGSSQLSSNSLYAKAVKNHSSGTVSATSPNKCKRPMNAFMLFAKKYRVEYTQMYPGKDNRAISVILGDRWKKMKNEERRMYTLEAKALAEEQKRLNPDCWKRKRTNSGSQQH
